The source of these data is article doi:10.1101/2025.02.06.636899.

The assay has as its target HA-tagged Q331K human TDP-43 (human) (UniProt Q13148). Put plainly: co-IP.

Results are given in words; binding and its absence hold for the method and conditions named. Binding seen in cells or lysates may run through a third protein.

Take RAD23A (from UniProt P54725 1-363): the binding result is listed as “no binding”.
